According to the supplement of paper PMC10849652:
This is one part of the list.

Chains of the proteins cited; added tags and fusions are not shown. Lines headed by an entry give the natural chain unless they say otherwise; changes in a name come on top.
UniProt P32856: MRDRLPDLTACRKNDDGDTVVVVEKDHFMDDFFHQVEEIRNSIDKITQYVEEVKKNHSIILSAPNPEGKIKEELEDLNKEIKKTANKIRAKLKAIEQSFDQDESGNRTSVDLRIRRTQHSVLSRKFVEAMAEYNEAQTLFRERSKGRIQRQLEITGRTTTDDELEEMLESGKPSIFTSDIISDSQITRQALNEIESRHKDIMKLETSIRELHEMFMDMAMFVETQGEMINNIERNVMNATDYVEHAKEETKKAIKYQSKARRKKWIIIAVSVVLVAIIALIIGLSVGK

Tests used:
Assay in all cases: log2 fold change, soluble protein after heating vs DMSO (PISA); higher = thermal stabilisation; K562 cells, 10 uM, 30 min; active = over 0.2 and 3.5 SD of the protein, either way, in both replicates (recomputed)
defactinib = compound: CNC(=O)c1ccc(Nc2ncc(C(F)(F)F)c(NCc3nccnc3N(C)S(C)(=O)=O)n2)cc1 [defactinib]
Procedure, shortened: (§1)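 K562 cells at 2×10^6 cells/mL were treated for 30 min with 10 μM compound, and aliquots were heated for 3 min over 48°C-58°C before pooling. Extraction used PBS with 0.5% NP-40 at 4°C, and soluble protein was the supernatant after 21,000xg for 90 min, measured by TMTpro 16plex LC-MS/MS with channel sums equalised. Thermal stability values, relative to control samples and from duplicates, are log2 fold changes.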

rucaparib = compound: CNCc1ccc(-c2[nH]c3cc(F)cc4c3c2CCNC4=O)cc1 [rucaparib]
Procedure, shortened: as §1

[1] = compound: CNc1nc(-c2ccc3c(N)n[nH]c3c2)cc(N2C[C@@H](C(=O)NC3CCCCC3)CC[C@H]2C)n1
Procedure, shortened: as §1

encorafenib = compound: COC(=O)N[C@@H](C)CNc1nccc(-c2cn(C(C)C)nc2-c2cc(Cl)cc(NS(C)(=O)=O)c2F)n1 [encorafenib]
Procedure, shortened: as §1

[2] = compound: COC(=O)[C@H](CCSC)NC(=O)C1=C(C=C(C=C1)NC[C@H](CS)N)C2=CC=CC=C2
Procedure, shortened: as §1

[3] = compound: COC1=CC=C(C=C1)CN2C=CC3=C2C=C(C=C3)C(=O)NO
Procedure, shortened: as §1

filanesib = compound: CON(C)C(=O)N1N=C(c2cc(F)ccc2F)S[C@@]1(CCCN)c1ccccc1 [filanesib]
Procedure, shortened: as §1

zotarolimus = compound: CO[C@H]1C[C@@H]2CC[C@@H](C)[C@@](O)(O2)C(=O)C(=O)N2CCCC[C@H]2C(=O)O[C@H]([C@H](C)C[C@@H]2CC[C@H](n3cnnn3)[C@H](OC)C2)CC(=O)[C@H](C)/C=C(\C)[C@@H](O)[C@@H](OC)C(=O)[C@H](C)C[C@H](C)/C=C/C=C/C=C/1C [zotarolimus]
Procedure, shortened: as §1

idasanutlin = compound: COc1cc(C(=O)O)ccc1NC(=O)[C@@H]1N[C@@H](CC(C)(C)C)[C@](C#N)(c2ccc(Cl)cc2F)[C@H]1c1cccc(Cl)c1F [idasanutlin]
Procedure, shortened: as §1

alisertib = compound: COc1cc(Nc2ncc3c(n2)-c2ccc(Cl)cc2C(c2c(F)cccc2OC)=NC3)ccc1C(=O)O [alisertib]
Procedure, shortened: as §1

[4] = compound: COc1cc2nc(-c3cc(F)ccc3O)nc(N[C@@H]3CNC[C@H]3C(C)(C)O)c2cc1OC
Procedure, shortened: as §1

gefitinib = compound: COc1cc2ncnc(Nc3ccc(F)c(Cl)c3)c2cc1OCCCN1CCOCC1 [gefitinib]
Procedure, shortened: as §1

[5] = compound: COc1cccc2cc(-c3nc([C@H]4CC[C@H](C(=O)O)CC4)n4ncnc(N)c34)[nH]c12
Procedure, shortened: as §1

lapatinib = compound: CS(=O)(=O)CCNCc1ccc(-c2ccc3ncnc(Nc4ccc(OCc5cccc(F)c5)c(Cl)c4)c3c2)o1 [lapatinib]
Procedure, shortened: as §1

pictilisib = compound: CS(=O)(=O)N1CCN(Cc2cc3nc(-c4cccc5[nH]ncc45)nc(N4CCOCC4)c3s2)CC1 [pictilisib]
Procedure, shortened: as §1

[6] = compound: CS(=O)(=O)c1ccc(-c2cnc(N)c(C(=O)Nc3ccccc3)n2)cc1
Procedure, shortened: as §1

crizotinib = compound: C[C@@H](Oc1cc(-c2cnn(C3CCNCC3)c2)cnc1N)c1c(Cl)ccc(F)c1Cl [crizotinib]
Procedure, shortened: as §1

[7] = compound: C[C@@H]1COCCN1C2=NC(=NC(=C2)C3(CC3)S(=O)(=O)C)C4=C5C=CNC5=CC=C4
Procedure, shortened: as §1

[8] = compound: C[C@H](C1=CC=C(C=C1)C(=O)NC2=C3C=CNC3=NC=C2)N
Procedure, shortened: as §1

duvelisib = compound: C[C@H](Nc1ncnc2nc[nH]c12)c1cc2cccc(Cl)c2c(=O)n1-c1ccccc1 [duvelisib]
Procedure, shortened: as §1

gandotinib = compound: Cc1cc(Nc2cc(CN3CCOCC3)c3nc(C)c(Cc4ccc(Cl)cc4F)n3n2)n[nH]1 [gandotinib]
Procedure, shortened: as §1

tozasertib = compound: Cc1cc(Nc2cc(N3CCN(C)CC3)nc(Sc3ccc(NC(=O)C4CC4)cc3)n2)n[nH]1 [tozasertib]
Procedure, shortened: as §1

[9] = compound: Cc1cc(SCc2sc(-c3ccc(C(F)(F)F)cc3)nc2C)ccc1OCC(=O)O
Procedure, shortened: as §1

doramapimod = compound: Cc1ccc(-n2nc(C(C)(C)C)cc2NC(=O)Nc2ccc(OCCN3CCOCC3)c3ccccc23)cc1 [doramapimod]
Procedure, shortened: as §1

ispinesib = compound: Cc1ccc(C(=O)N(CCCN)[C@@H](c2nc3cc(Cl)ccc3c(=O)n2Cc2ccccc2)C(C)C)cc1 [ispinesib]
Procedure, shortened: as §1

bafetinib = compound: Cc1ccc(NC(=O)c2ccc(CN3CC[C@H](N(C)C)C3)c(C(F)(F)F)c2)cc1Nc1nccc(-c2cncnc2)n1 [bafetinib]
Procedure, shortened: as §1

[10] = compound: Cc1cccc(CC(=O)N2CCc3c2ccc(-c2cn(C)c4ncnc(N)c24)c3F)n1
Procedure, shortened: as §1

nilotinib = compound: Cc1cn(-c2cc(NC(=O)c3ccc(C)c(Nc4nccc(-c5cccnc5)n4)c3)cc(C(F)(F)F)c2)cn1 [nilotinib]
Procedure, shortened: as §1

[11] = compound: Cc1nc(Nc2n[nH]c3c2CN(C(=O)N[C@H](CN(C)C)c2ccccc2)C3(C)C)c2sccc2n1
Procedure, shortened: as §1

dasatinib = compound: Cc1nc(Nc2ncc(C(=O)Nc3c(C)cccc3Cl)s2)cc(N2CCN(CCO)CC2)n1 [dasatinib]
Procedure, shortened: as §1

[12] = compound: Cc1ncc(-c2ccnc(Nc3ccc(S(C)(=O)=O)cc3)n2)n1C(C)C
Procedure, shortened: as §1

[13] = compound: Cc1sc2c(c1C)C(c1ccc(Cl)cc1)=N[C@@H](CC(=O)OC(C)(C)C)c1nnc(C)n1-2
Procedure, shortened: as §1

[14] = compound: Cn1cc(-c2ccc3c(c2)CCN3C(=O)Cc2cccc(C(F)(F)F)c2)c2c(N)ncnc21
Procedure, shortened: as §1

[15] = compound: Cn1cc(-c2ccc3nnc(C(F)(F)c4ccc5ncccc5c4)n3n2)cn1
Procedure, shortened: as §1

tipifarnib = compound: Cn1cncc1[C@@](N)(c1ccc(Cl)cc1)c1ccc2c(c1)c(-c1cccc(Cl)c1)cc(=O)n2C [tipifarnib]
Procedure, shortened: as §1

mubritinib = compound: FC(F)(F)c1ccc(/C=C/c2nc(COc3ccc(CCCCn4ccnn4)cc3)co2)cc1 [mubritinib]
Procedure, shortened: as §1

[16] = compound: NC(=O)Nc1cc(-c2cccc(F)c2)sc1C(=O)N[C@H]1CCCNC1
Procedure, shortened: as §1

[17] = compound: NC(=O)c1cnc(N[C@@H]2CCCC[C@@H]2N)nc1Nc1cccc(-n2nccn2)c1
Procedure, shortened: as §1

[18] = compound: NC1(c2ccc(-c3nc4ccn5c(=O)[nH]nc5c4cc3-c3ccccc3)cc2)CCC1
Procedure, shortened: as §1

[19] = compound: NCC(=O)Nc1ccc(-n2nc(C(F)(F)F)cc2-c2ccc3c(ccc4ccccc43)c2)cc1
Procedure, shortened: as §1

entinostat = compound: Nc1ccccc1NC(=O)c1ccc(CNC(=O)OCc2cccnc2)cc1 [entinostat]
Procedure, shortened: as §1

vorinostat = compound: O=C(CCCCCCC(=O)Nc1ccccc1)NO [vorinostat]
Procedure, shortened: as §1

citarinostat = compound: O=C(CCCCCCNC(=O)c1cnc(N(c2ccccc2)c2ccccc2Cl)nc1)NO [citarinostat]
Procedure, shortened: as §1

silmitasertib = compound: O=C(O)c1ccc2c(c1)nc(Nc1cccc(Cl)c1)c1ccncc12 [silmitasertib]
Procedure, shortened: as §1

[20] = compound: O=C1NC(=O)C(c2cnc3ccccn23)=C1c1cn2c3c(cc(F)cc13)CN(C(=O)N1CCCCC1)CC2
Procedure, shortened: as §1

[21] = compound: c1cc(OCCN2CCCCC2)cc(-c2n[nH]c3ccc(-c4nnc[nH]4)cc23)c1
Procedure, shortened: as §1

[22] = compound: c1ccc([C@@H]2C[C@H]2NC2CCNCC2)cc1
Procedure, shortened: as §1

entospletinib = compound: c1cn2cc(-c3ccc4cn[nH]c4c3)nc(Nc3ccc(N4CCOCC4)cc3)c2n1 [entospletinib]
Procedure, shortened: as §1

Measured: log2 fold change

STX2 (UniProt P32856)
inactive: defactinib -0.113 | rucaparib -0.034 | [1] -0.108 | encorafenib -0.004 | [2] 0.103 | [3] -0.088 | filanesib -0.018 | zotarolimus -0.044 | idasanutlin 0.021 | alisertib -0.09 | [4] 0.214 | gefitinib 0.031 | [5] -0.07 | lapatinib -0.032 | pictilisib 0.127 | [6] -0.002 | crizotinib 0.08 | [7] 0.053 | [8] -0.045 | duvelisib 0.004 | gandotinib -0.005 | tozasertib -0.023 | [9] 0.074 | doramapimod 0.072 | ispinesib 0.248 | bafetinib -0.044 | [10] -0.041 | nilotinib -0.048 | [11] -0.174 | dasatinib -0.23 | [12] -0.041 | [13] 0.082 | [14] 0.057 | [15] -0.022 | tipifarnib 0.133 | mubritinib 0.066 | [16] 0.014 | [17] 0.012 | [18] -0.023 | [19] -0.085 | entinostat 0.032 | vorinostat -0.061 | citarinostat -0.018 | silmitasertib 0.046 | [20] -0.036 | [21] 0.122 | [22] 0.108 | entospletinib 0.014
